From publication PMC12772312, “The MAB_3513c gene plays a key role in intrinsic resistance of Mycobacterium abscessus to isoniazid and ethionamide” (Microbiology Spectrum, 2025)

Target: Mycobacterium abscessus NudC with the P226Q point mutation (Mycobacterium abscessus)
Test: SEC; HiLoad 16/600 Superdex 75 pg, 20 mM Tris-HCl (pH 7.5), 150 mM NaCl, 1 mM 1,4-dithiothreitol, 4°C, 1 mL/min; retention times compared to molecular weight standards; both purified

B1: Mycobacterium abscessus NudC with the P226Q point mutation (enzyme, UniProt A0A0U1C370 1-310)
chain: MTFRLRNIPLLSRVGLDRADELRSNPEELAKGWAEAGLITLDVRGRVNIVDGQVVIEDAARIGDQPPEHAVFLGRIPGGRHVWAVRADLDEDSAPLLDLRRSGQLFDDTSAALLATAMAMLAWHDNAGYSPVDGSPTIPAKGGWVRVNSATGQEEFPRTDPAIICLVHDGGDRAVLGRQKFWPERMFSLLAGFVEAGESLEACVAREVAEEVGLTVTDVQYLGSQQWPFPRSIMLGFHAIGDPSQPFAFNDGEIAEADWFTRAEVRSALEAGDWTTASDSRLMLPGSISIAREIVESWAYAGEEPPAGRP
For B1, the binding was “no binding”.

Results are given in words; binding and its absence hold for the method and conditions named. Where a sequence is shown, tags or fusion partners need not be part of it.
